This list holds what a sample rich in hits left over. Results filed as inconclusive are left out. Active and inactive are the calls of the source. The call rests on the fitted dose curve; in most records, active means well fitted inhibition curve with a large enough effect; inconclusive means small, poorly fitted or top-dose-only effect, or another doubt; inactive means no such curve, though single readings can be large or run the other way.
target: DNA polymerase iota (Homo sapiens) (UniProt Q9UNA4); assay: qHTS for Inhibitors of Polymerase Iota; details: Pol iota fluorescent replication assay, 10 min; at 115 µM (top of the series)
Source text: DNA polymerases, such as Pol iota, are specifically involved in DNA repair. Pol iota specifically plays an important role in translesion synthesis, where the normal high-fidelity DNA polymerases cannot proceed and DNA synthesis stalls. […] Thus, while pol eta's (and most likely iota's) normal function is to protect humans against the deleterious consequences of DNA damage, under certain conditions they can have deleterious effects on human health. As a consequence, we propose to utilize a high throughput replication assay to identify small molecule inhibitors of pol iota.
In a collaboration between the National Institute of Child Health & Human Development (NICHD) and NIH Chemical Genomics Center, a high-throughput, fluorescent screen was developed to screen the NIH Molecular Libraries Small Molecule Repository (MLSMR). This screen is used to identify inhibitors of pol iota.
NIH Chemical Genomics Center [NCGC]
NIH Molecular Libraries Probe Centers Network [MLPCN] […]
Three microliters of reagents (buffer in column 3 and 4 as negative control and 10 nM Pol iota in columns 1, 2, and 5-48) will be dispensed into 1,536-well black solid-bottomed plate. […] The plates will then be incubated for 15 min at room temperature, and 1 µL substrate (50 nM final concentration) will be added to start the reaction and kinetically read twice at 0 min and 10 min on the Viewlux reader.

The chains behind the UniProt entries cited, without tags or fusion partners. Where a name states a change or a piece, a line headed by the entry shows the natural chain unless it says otherwise.
UniProt Q9UNA4: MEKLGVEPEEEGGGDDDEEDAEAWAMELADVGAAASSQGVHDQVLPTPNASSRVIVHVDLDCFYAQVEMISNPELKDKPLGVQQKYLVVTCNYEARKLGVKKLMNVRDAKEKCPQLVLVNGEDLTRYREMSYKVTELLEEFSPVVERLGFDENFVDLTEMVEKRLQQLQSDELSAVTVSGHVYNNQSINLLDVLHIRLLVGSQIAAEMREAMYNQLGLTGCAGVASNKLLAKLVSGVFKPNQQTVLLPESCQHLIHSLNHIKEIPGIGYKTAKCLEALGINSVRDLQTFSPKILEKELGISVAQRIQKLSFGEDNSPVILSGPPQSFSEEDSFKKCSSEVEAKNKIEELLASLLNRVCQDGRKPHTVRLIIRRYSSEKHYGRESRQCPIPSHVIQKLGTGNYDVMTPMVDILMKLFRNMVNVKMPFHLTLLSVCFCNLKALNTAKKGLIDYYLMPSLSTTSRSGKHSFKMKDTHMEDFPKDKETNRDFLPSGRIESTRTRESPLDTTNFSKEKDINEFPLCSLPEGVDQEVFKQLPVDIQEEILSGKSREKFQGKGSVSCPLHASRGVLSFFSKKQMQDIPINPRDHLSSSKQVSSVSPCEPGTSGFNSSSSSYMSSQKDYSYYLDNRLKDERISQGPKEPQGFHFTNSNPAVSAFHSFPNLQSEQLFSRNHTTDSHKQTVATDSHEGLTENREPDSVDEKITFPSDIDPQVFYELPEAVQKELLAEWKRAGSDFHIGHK

Structure (SMILES) | activity, negative = inhibition
COc1c(O)cc2c(c1OC)-c1ccc(OC)c(=O)cc1C(NC(C)=O)CC2 (stereo unspecified) | inactive: 28.2%

— PubChem BioAssay AID588590 (National Center for Advancing Translational Sciences (NCATS), 2011)
